Source: PMC6925144, “A prospective compound screening contest identified broader inhibitors for Sirtuin 1” (Scientific Reports, 2019)
Over roughly 3,200 compounds, “TSA(with NAD+) / Primary screening (TSA) / delta Tm (K)” has its median near -0.04; the highest 2% begin near 0.37. This is one part of the list.

Amino acid sequences for entries named in this document (tags omitted). Residues count along the entry.
UniProt Q96EB6, 2-747 limits assumed: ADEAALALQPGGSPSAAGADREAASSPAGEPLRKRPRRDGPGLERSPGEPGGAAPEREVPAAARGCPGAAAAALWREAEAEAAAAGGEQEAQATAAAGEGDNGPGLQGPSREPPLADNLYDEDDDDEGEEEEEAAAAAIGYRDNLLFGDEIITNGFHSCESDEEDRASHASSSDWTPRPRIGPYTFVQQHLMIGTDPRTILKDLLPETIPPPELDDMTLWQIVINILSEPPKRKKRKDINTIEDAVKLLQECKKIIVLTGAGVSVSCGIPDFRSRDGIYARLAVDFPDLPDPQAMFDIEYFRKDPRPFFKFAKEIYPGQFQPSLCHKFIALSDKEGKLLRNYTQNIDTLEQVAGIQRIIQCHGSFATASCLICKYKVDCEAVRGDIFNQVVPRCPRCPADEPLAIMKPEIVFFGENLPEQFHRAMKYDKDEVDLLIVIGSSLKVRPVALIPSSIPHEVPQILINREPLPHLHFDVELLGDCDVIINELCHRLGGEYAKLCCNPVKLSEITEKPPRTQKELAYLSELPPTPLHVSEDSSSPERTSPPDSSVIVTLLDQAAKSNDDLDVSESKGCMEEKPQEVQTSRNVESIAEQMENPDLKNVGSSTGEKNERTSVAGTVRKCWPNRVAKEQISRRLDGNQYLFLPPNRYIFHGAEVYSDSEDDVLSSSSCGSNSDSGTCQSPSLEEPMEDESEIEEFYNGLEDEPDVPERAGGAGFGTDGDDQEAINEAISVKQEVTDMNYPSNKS

Molecular target: NAD-dependent deacetylase Sirtuin 1 (human, UniProt Q96EB6)
Assay: primary screen, delta tm
Parameters: single well (n = 1, as 'the same TSA')
Settings: 10 µM

Row | Structure (SMILES) | TSA(with NAD+) / Primary screening (TSA) / delta Tm (K)
1 | Cc1ccc(-c2nnc(CCC(=O)Nc3cccc(C)c3C)o2)cc1 | -0.03
2 | CC(C)CC(NC(N)=O)C(=O)NC(Cc1ccccc1)c1nc2ccccc2[nH]1 (stereo not drawn) | -0.12
3 | COc1ccc(C=C2C(=O)NC(=S)NC2=O)c2ccccc12 | -0.01
4 | O=c1[nH]nc(-c2ccc(F)cc2)o1 | -0.04
5 | Cc1cccc(-c2nc3ccccc3n3c(C)nnc23)c1 | -0.13
6 | CC1(C)CC(=O)C(=CNNC(=O)CC23CC4CC(CC(C4)C2)C3)C(=O)C1 | -0.06
7 | O=C(/C=C/c1ccco1)C1=C(O)C(=O)N(CCN2CCOCC2)C1c1ccncc1 (stereo not drawn) | -0.06
8 | Cc1cc(CNC(=O)Cc2sc(S)nc2C)on1 | -0.04
9 | COc1cc(CN(C)C(=O)CN2C(=O)NC3(CCc4ccccc43)C2=O)ccc1OCc1ccccc1 (stereo not drawn) | -0.02
10 | O=C(c1cc2c(s1)CCCC2)N(Cc1ccccc1)c1ccccc1 | -0.25
11 | O=C(NCCc1c[nH]c2ccccc12)C1=COCCO1 | -0.13
12 | COC(=O)CCN | -0.02
13 | CCC(CN)OC (stereo not drawn) | -0.11
14 | CSc1nc(-c2ccccc2)c[nH]1 | -0.09
15 | CC1CCC(NN)CC1 (stereo not drawn) | -0.01
16 | c1ccc(-c2[nH]c3c(ccc4ccccc43)c2-c2ccccc2)cc1 | 0.29
17 | O=C(CN1CCN(c2nc(-c3ccccc3)nc3ccccc23)CC1)Nc1nncs1 | -0.05
18 | CN(c1ccc(Oc2ncnc3ccccc23)cc1)S(=O)(=O)c1ccc2ccccc2c1 | -0.42
19 | Cc1c(C(=O)N2c3ccccc3NC(=O)C2(C)C)oc2ccc(Br)cc12 | -0.41
20 | CCc1c(C)c(C#N)c2nc3ccccc3n2c1S | 0.46
21 | COC[C@@H](C)N | 0.05
22 | NC(=O)c1cnc(N2CCC(N3CCNC3=O)CC2)c(Cl)c1 | -0.01
23 | CCc1ccc(-c2noc(COc3ccc(-c4nnco4)cc3)n2)cc1 | -0.01
24 | CNS(=O)(=O)c1cc(N)ccc1C | -0.06

Pulled by structure from the list above:
Row | Structure (SMILES) | TSA(with NAD+) / Primary screening (TSA) / delta Tm (K)
17 | O=C(CN1CCN(c2nc(-c3ccccc3)nc3ccccc23)CC1)Nc1nncs1 | -0.05
10 | O=C(c1cc2c(s1)CCCC2)N(Cc1ccccc1)c1ccccc1 | -0.25
9 | COc1cc(CN(C)C(=O)CN2C(=O)NC3(CCc4ccccc43)C2=O)ccc1OCc1ccccc1 (stereo not drawn) | -0.02

Further compounds

Row | Structure (SMILES) | TSA(with NAD+) / Primary screening (TSA) / delta Tm (K)
25 | O=C(CN1CCCCCC1=O)N1CCN(c2cnccn2)CC1 | -0.04
26 | CCCCn1c(=O)c2c(nc3n(CCCC)c(C)cn23)n(C)c1=O | -0.06
27 | CN(c1ccccc1)S(=O)(=O)c1cccc(NC(=O)c2ccc(C(N)=O)cc2)c1 | -0.01
28 | CC(C)(C)c1ccc(OCCCC(=O)Nc2cccc(S(=O)(=O)N3CCOCC3)c2)cc1 | 0.02
29 | c1ccc2c(c1)NCC1CCCN21 (stereo not drawn) | -0.04
30 | CCc1cc2c(N3CCC(C(=O)Nc4cc(C)on4)CC3)ncnc2s1 | 0.05
31 | CN(Cc1nc2ccccc2c(=O)[nH]1)C(=O)c1ccc(COc2ccccc2C#N)o1 | -0.01
32 | c1ccc(-c2cn(-c3nc(-c4cccnc4)nc4ccccc34)cn2)cc1 | 0.16
33 | O=C(NC1CCOc2ccccc21)c1ccc2c(c1)NC(=O)C1CCCN21 (stereo not drawn) | -0.05
34 | Cn1ncc2c(N3CCN(C(=O)C4CC(=O)N(C5CCCC5)C4)CC3)ncnc21 (stereo not drawn) | -0.11
35 | Cc1ccc(C(=O)N2CC3(CCCC3)c3ccccc32)c(=O)[nH]1 | -0.22
36 | Cc1cc(N2CCN(c3ncccc3C(N)=O)CC2)nc(C2CC2)n1 | 0.05
37 | COC(=O)C[C@@H](C)OC(=O)c1ccc(F)cc1F | -0.05
38 | O=c1oc2ccc3ccccc3c2cc1-c1cn(-c2ccc(Br)cc2)c(S)n1 | -0.28
39 | N#CCCn1cc(/C=C/C(=O)NC2CC2c2cccc(F)c2)c2ccccc21 (stereo not drawn) | -0.03
40 | FC(F)(F)c1nnc2ccc(NCC3CCOC3)nn12 (stereo not drawn) | -0.16
41 | O=C(NCc1cccc(C(=O)NCc2ccco2)c1)Nc1nnc(C2CC2)s1 | -0.23
42 | CCC(N)c1nnn[nH]1 (stereo not drawn) | 0.02
43 | CN(c1ccccc1)S(=O)(=O)c1cccc(NC(=O)CCCc2c[nH]c3ccccc23)c1 | 0.39
44 | Cc1nn(-c2cccc(C(F)(F)F)c2)c2sc(C(=O)NC3CC3)cc12 | -0.01
45 | CC1CN(c2ncnc3ccsc23)CCO1 (stereo not drawn) | -0.26
46 | C[C@H](CCO)Nc1ccc(Br)cc1C#N | -0.13
47 | O=C(c1n[nH]c(=O)c2ccccc12)N1CCCC2(CCCCCC2)C1 | -0.28
48 | Cc1csc2c(-n3cc([N+](=O)[O-])cn3)ncnc12 | -0.26
